Values of other authors as cited in patent US5334612A, “Pharmaceutical compositions containing as active substance sulphur-containing carboxylic acids and their use in combating retroviruses” (priority 1988, dated 1994).
At least one compound was matched to its structure with a doubt left.

Key:
reverse transcriptase = conditions: acts predominantly on non-infected cells; cited from earlier work
HIV in infected cells = conditions: unlike α-lipoic acid; cited from earlier work

## Cc1cn([C@H]2C[C@H](N=[N+]=[N-])[C@@H](CO)O2)c(=O)[nH]c1=O [AZT, azidothymidine]
Reverse transcriptase
  inhibition of reverse transcriptase: inhibits reverse transcriptase
HIV in infected cells
  inhibition of growth of the virus once a cell has been infected: no longer able to inhibit the growth of the virus
